Laboratory results as given in patent US20260217701A1, “SELECTIVE BET INHIBITORS AND USES THEREOF” (Tay Therapeutics Limited, priority 2022, published 2026).
Values joined by “and” are separate entries in the source; they are usually repeats but may differ in a detail not shown here. Equal entries are not always repeated. This continues a long series; more values of the same kind are listed elsewhere.

Experiments:
IL-22 = IL-22 release from activated human PBMCs (ELISA); assay type: cell-based; details: Compound Conc. 0.003703704 μM; Donors 1-6, two values per donor
Protocol: (§1) Human PBMCs used to analyze inhibition of CXCL10 were collected from 8 donors, PBMCs used to analyze inhibition of IL-17A were collected from 7 donors, and PBMCs used to analyze inhibition of IL-22 were collected from 6 donors. Compounds were serially diluted in 10 mM DMSO and further diluted in assay media to 100× the required final concentration, of which 2 μL was added to the specified well. […] The cell culture supernatant was collected and levels of IL-17A and IL-22 in the supernatant were assessed by ELISA (Invitrogen).

IL-17A = IL-17A release from activated human PBMCs (ELISA); assay type: cell-based; details: Donors 1-7, two values per donor
Protocol: as §1

[1] = system: imiquimod-induced psoriasis; assay: Imiquimod-induced psoriasis model; assay type: in vivo, mice; details: individual animals
Text: Imiquimod-induced psoriasis is a model of psoriasis in mice that induces psoriasis-like dermatitis. The pathology closes resembles human plaque-type psoriasis and is a valuable tool for testing new therapies against psoriasis. […] Compound A was formulated in a 5% DMSO/40% PEG-400/55% (0.9% NaCl w/v water) solution (Table 2F). Experimental groups for the study are outlined in Table 4. Prior to study initiation, the backs of all animals in the study were depilated to allow for induction of psoriasis and monitoring of disease progression.
Once assigned to experimental groups, on Day 1 and continuing through Day 14, topical imiquimod (IMI; Aldara™ containing 5% Imiquimod) was administered to the dorsal depilated animals, and animals in group 1 received topical administration of Excipial® hydrocream (65 mg). […] Clobetasol was applied topically for animals in group 11.
Body weights were recorded three times a week from Day 1 to Day 8, and daily from Day 8 until the study end at Day 15. At termination on D15 the spleen weight ratio was determined. Disease severity was assessed using the psoriasis area severity index (PASI) daily from Day 8 until study completion on Day 15. The PASI score was calculated based on three parameters (presence of erythema, induration of the skin, and peeling of the skin at the area of induction) on a scale of 0 to 4 (0=no more or absence, 1=low, 2=moderate, 3=high, 4=severe). The PASI score for each animal was calculated as the sum of the score of each parameter measured. The score of the use of enrichment (SUE) was also assessed daily from Day 8 to Day 15. At study completion on Day 15, animal behavior was evaluated using an open field to assess distance travelled, number scratching, and licking and rearing performed in 10 minutes. Upon study termination animals were sacrificed, the spleen was excised and weighed, and blood samples were collected. Serum was isolated from the blood sample for cytokine and other biomarker analysis. IL-1B, IL-6, IL-17, and TNF-α assayed using simple plex technique on an ELLA automated immunoassay system. IL-22 and IL-23 were assayed by ELISA.
The imiquimod-induced model of psoriasis was used to assess the efficacy of Compound A in treating psoriasis. […] Treatment started on Day 8 after induction so reference to day 1 of treatment is to Day 8 and day 7 of treatment is to Day 14.

Compound: Cn1cc(-c2ccccc2)c(-c2cn(C)c(=O)c3[nH]c(-c4cnn(C(F)(F)F)c4)cc23)cc1=O [Compound A, 6-methyl-4-(1-methyl-2-oxo-5-phenyl-1,2-dihydropyridin-4-yl)-2-(1-(trifluoromethyl)-1H-pyrazol-4-yl)-1,6-dihydro-7H-pyrrolo[2,3-c]pyridin-7-one]
- Percent Inhibition Relative to Control (IL-22) (IL-22): 68.04% and 61.67% and 51.81% and 80.73% and 79.65% and 75.51% and 62.59% and 54.19%
- Percent Inhibition Relative to Control (IL-17A) (IL-17A; Compound Conc. 0.003703704 μM): 70.33% and 80.41% and 67.79% and 60.5% and 70.45% and 69.67% and 63.45% and 71.06% and 74.87% and 79.08% and 75.92% and 67.69% and 54.36% and 79.88%
- Percent Inhibition Relative to Control (IL-17A) (IL-17A; Compound Conc. 0.011111111 μM): 71.45% and 66.86% and 67.16% and 58.72% and 76.44% and 74.19% and 71.49% and 77.11% and 71.75% and 72.53% and 79.11%
- PASI Scores ([1]; IMI + Compound A 3 mg/kg, D9, 3 mg/kg): 7
- PASI Scores ([1]; IMI + Compound A 3 mg/kg, D13, 3 mg/kg): 3 and 1
- PASI Scores ([1]; IMI + Compound A 10 mg/kg, D8 (day treatment started), 10 mg/kg): 6 and 9 and 7 (3×) and 5 and 8 (2×)
- PASI Scores ([1]; IMI + Compound A 10 mg/kg, D9, 10 mg/kg): 3 (2×) and 6 (2×) and 8 and 4 and 5 and 7
- PASI Scores ([1]; IMI + Compound A 10 mg/kg, D10, 10 mg/kg): 2 and 4 (2×) and 5 (3×) and 3 and 6
- PASI Scores ([1]; IMI + Compound A 10 mg/kg, D11, 10 mg/kg): 5 (3×) and 6 and 3 (2×) and 4 (2×)
- PASI Scores ([1]; IMI + Compound A 10 mg/kg, D12, 10 mg/kg): 5 and 3 and 1 and 2 (3×) and 4 (2×)
- PASI Scores ([1]; IMI + Compound A 10 mg/kg, D13, 10 mg/kg): 2 (4×) and 1 (4×)
- PASI Scores ([1]; IMI + Compound A 10 mg/kg, D14, 10 mg/kg): 1 (5×) and 0 (3×)
- PASI Scores ([1]; IMI + Compound A 10 mg/kg, D15, 10 mg/kg): 0 (5×) and 1 (3×)
